# Patent US4012395A, “Process for preparing thiazolidinone acetic acid derivatives” (Warner-Lambert Company, priority 1974, dated 1977)
# Key:
# [1] = system: potassium excretion in dogs; experiment: Influence on potassium excretion (clearance experiments); assay type: in vivo, dog; settings: anesthetized dogs, with higher amounts of sodium excreted
# Method: Animals were anesthetized by 30.0 mg/kg pentobarbital intravenously. At the beginning of the experiment one saline solution was infused within 1 hour. In the urine which was collected by using a bladder catheter besides other parameters potassium and sodium concentrations were determined by flame photometry.
# [2] = system: potassium excretion; settings: in vivo; cited from earlier work
structure (smiles),measurement,setting,value
NS(=O)(=O)c1cc(C(=O)O)c(NCc2ccco2)cc1Cl [Furosemide],"increase of potassium excretion, Furosemide versus […]",[1],by far more increased with Furosemide than with 3282
same,"effect on potassium excretion, Furosemide (known)",[2],little effect on potassium excretion
